The target of the assay is FLAG-tagged WT Bmal1 (adenovirus) (mouse) (UniProt Q9WTL8). The experiment in a line: co-IP; anti-FLAG beads on lysates of insulin-treated (50 nM, 30 min) primary hepatocytes infected with Ad-FLAG-tagged WT or S42A Bmal1; blot for 14-3-3β.

Chains of the proteins cited; added tags and fusions are not shown. Lines headed by an entry give the natural chain unless they say otherwise; changes in a name come on top.
UniProt Q9WTL8: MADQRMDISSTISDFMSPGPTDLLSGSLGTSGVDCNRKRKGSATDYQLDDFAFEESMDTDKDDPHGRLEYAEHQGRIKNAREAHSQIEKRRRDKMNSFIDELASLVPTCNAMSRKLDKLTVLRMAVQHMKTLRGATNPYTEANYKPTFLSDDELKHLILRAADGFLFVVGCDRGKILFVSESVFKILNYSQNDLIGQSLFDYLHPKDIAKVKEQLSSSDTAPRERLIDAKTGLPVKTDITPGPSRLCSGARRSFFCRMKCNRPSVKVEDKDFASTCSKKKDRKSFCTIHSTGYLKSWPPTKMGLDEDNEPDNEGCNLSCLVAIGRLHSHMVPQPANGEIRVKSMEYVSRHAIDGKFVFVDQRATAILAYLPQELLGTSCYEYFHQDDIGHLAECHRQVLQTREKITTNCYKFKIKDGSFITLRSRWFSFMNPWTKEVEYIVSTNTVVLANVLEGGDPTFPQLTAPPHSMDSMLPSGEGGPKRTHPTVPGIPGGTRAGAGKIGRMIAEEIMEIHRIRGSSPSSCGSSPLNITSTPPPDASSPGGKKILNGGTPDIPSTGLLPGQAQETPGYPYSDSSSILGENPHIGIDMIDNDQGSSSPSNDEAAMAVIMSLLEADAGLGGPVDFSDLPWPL

Results are given in words; binding and its absence hold for the method and conditions named. In cells and extracts the contact can be indirect. Binding calls can cover weak binding; strength is not graded here.

B1: 14-3-3β (protein, UniProt Q9CQV8 1-246)
chain: MTMDKSELVQKAKLAEQAERYDDMAAAMKAVTEQGHELSNEERNLLSVAYKNVVGARRSSWRVISSIEQKTERNEKKQQMGKEYREKIEAELQDICNDVLELLDKYLILNATQAESKVFYLKMKGDYFRYLSEVASGENKQTTVSNSQQAYQEAFEISKKEMQPTHPIRLGLALNFSVFYYEILNSPEKACSLAKTAFDEAIAELDTLNEESYKDSTLIMQLLRDNLTLWTSENQGDEGDAGEGEN
As for B1, the binding result is “binds”.

Source of the values: article PMC5013695.
